# In the supplement of paper PMC8728848:
# The other results are listed elsewhere or left out.
# B1: Clec12b (Mus musculus), Q149M0 (protein)
# chain: MSDEVTYATLMLQDSARVRGNQDGNNLRKEGHPAQSSLWRGAALSLMTLCLVLVTGLVTLATMFLQVSNDINSDSEKLSQLQKSIHPQQDNLSESLNSSRKSLTEESLQSQISALLERQEQMATKLCKEFLIHASDHKCNPCPKTWQWYGNSCYYFSINEEKSWSDSRKDCIDKNATLVKIDSTEERDLLQSQLSLTFSFFWLGLSWNSSGRNWLWEDGSFPPPTLFSDKELASFNGSRDCAYFERGNIYASRCSAEIPWICEKTASLVKTEDLD
# Legend:
# Assay in all cases: glycan array binding signal (z-score within array); higher = stronger binding
# Details in all cases: glycan notation: IUPAC condensed, linker removed
# Gal(b1-3)GalNAc(b1-3)Gal = target: Gal(b1-3)GalNAc(b1-3)Gal
# Procedure, shortened: (§1)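 The binding signal is a Z-score computed within each array and averaged over linkers. Arrays of the same protein sequence at different concentrations or buffers were also averaged together. Data originate from 3228 arrays in the Consortium for Functional Glycomics database, kept only where the protein sequence was available.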
# [1] = target: Gal(b1-3)GalNAc(b1-3)Gal(a1-4)Gal(b1-4)Glc
# Procedure, shortened: as §1
# [2] = target: Gal(b1-3)GalNAc(b1-4)Gal(b1-4)Glc
# Procedure, shortened: as §1
# [3] = target: Gal(b1-3)GalNAc(b1-4)[Neu5Ac(a2-3)]Gal(b1-4)Glc
# Procedure, shortened: as §1
# Gal(b1-3)GlcNAc = target: Gal(b1-3)GlcNAc
# Procedure, shortened: as §1
# [4] = target: Gal(b1-3)GlcNAc(a1-3)Gal(b1-4)GlcNAc
# Procedure, shortened: as §1
# [5] = target: Gal(b1-3)GlcNAc(a1-6)Gal(b1-4)GlcNAc
# Procedure, shortened: as §1
# Gal(b1-3)GlcNAc(b1-2)Man = target: Gal(b1-3)GlcNAc(b1-2)Man
# Procedure, shortened: as §1
# [6] = target: Gal(b1-3)GlcNAc(b1-2)Man(a1-3)[Gal(b1-3)GlcNAc(b1-2)Man(a1-6)]Man(b1-4)GlcNAc(b1-4)GlcNAc
# Procedure, shortened: as §1
# [7] = target: Gal(b1-3)GlcNAc(b1-2)Man(a1-3)[Gal(b1-3)GlcNAc(b1-2)Man(a1-6)]Man(b1-4)GlcNAc(b1-4)[Fuc(a1-6)]GlcNAc
# Procedure, shortened: as §1
# [8] = target: Gal(b1-3)GlcNAc(b1-2)Man(a1-3)[GlcNAc(b1-4)][Gal(b1-3)GlcNAc(b1-2)Man(a1-6)]Man(b1-4)GlcNAc(b1-4)GlcNAc
# Procedure, shortened: as §1
# [9] = target: Gal(b1-3)GlcNAc(b1-2)[Gal(b1-3)GlcNAc(b1-6)]Man(a1-6)[Gal(b1-3)GlcNAc(b1-2)Man(a1-3)]Man(b1-4)GlcNAc(b1-4)GlcNAc
# Procedure, shortened: as §1
# [10] = target: Gal(b1-3)GlcNAc(b1-3)Gal(b1-3)GlcNAc
# Procedure, shortened: as §1
# [11] = target: Gal(b1-3)GlcNAc(b1-3)Gal(b1-4)Glc
# Procedure, shortened: as §1
# [12] = target: Gal(b1-3)GlcNAc(b1-3)Gal(b1-4)GlcNAc
# Procedure, shortened: as §1
# [13] = target: Gal(b1-3)GlcNAc(b1-3)Gal(b1-4)GlcNAc(b1-2)Man(a1-3)[Gal(b1-3)GlcNAc(b1-3)Gal(b1-4)GlcNAc(b1-2)Man(a1-6)]Man(b1-4)GlcNAc(b1-4)GlcNAc
# Procedure, shortened: as §1
# [14] = target: Gal(b1-3)GlcNAc(b1-3)Gal(b1-4)GlcNAc(b1-2)[Gal(b1-3)GlcNAc(b1-3)Gal(b1-4)GlcNAc(b1-6)]Man(a1-6)[Gal(b1-3)GlcNAc(b1-3)Gal(b1-4)GlcNAc(b1-2)Man(a1-3)]Man(b1-4)GlcNAc(b1-4)[Fuc(a1-6)]GlcNAc
# Procedure, shortened: as §1
# [15] = target: Gal(b1-3)GlcNAc(b1-3)Gal(b1-4)GlcNAc(b1-3)Gal(b1-4)GlcNAc(b1-2)[Gal(b1-3)GlcNAc(b1-3)Gal(b1-4)GlcNAc(b1-3)Gal(b1-4)GlcNAc(b1-6)]Man(a1-6)[Gal(b1-3)GlcNAc(b1-3)Gal(b1-4)GlcNAc(b1-3)Gal(b1-4)GlcNAc(b1-2)Man(a1-3)]Man(b1-4)GlcNAc(b1-4)[Fuc(a1-6)]GlcNAc
# Procedure, shortened: as §1
# [16] = target: Gal(b1-3)GlcNAc(b1-3)Gal(b1-4)GlcNAc(b1-6)[Gal(b1-3)GlcNAc(b1-3)]Gal(b1-4)Glc
# Procedure, shortened: as §1
# [17] = target: Gal(b1-3)GlcNAc(b1-3)Gal(b1-4)[Fuc(a1-3)]GlcNAc
# Procedure, shortened: as §1
# [18] = target: Gal(b1-3)GlcNAc(b1-3)Gal(b1-4)[Fuc(a1-3)]GlcNAc(b1-6)[Gal(b1-3)GlcNAc(b1-3)]Gal(b1-4)Glc
# Procedure, shortened: as §1
# [19] = target: Gal(b1-3)GlcNAc(b1-3)GalNAc
# Procedure, shortened: as §1
# [20] = target: Gal(b1-3)GlcNAc(b1-6)Gal(b1-4)GlcNAc
# Procedure, shortened: as §1
# [21] = target: Gal(b1-3)GlcNAc(b1-6)GalNAc
# Procedure, shortened: as §1
# [22] = target: Gal(b1-3)GlcNAc(b1-6)[Gal(b1-3)]GalNAc
# Procedure, shortened: as §1
# Gal(b1-3)GlcNAc6S = target: Gal(b1-3)GlcNAc6S
# Procedure, shortened: as §1
# [23] = target: Gal(b1-3)[Fuc(a1-4)]GlcNAc
# Procedure, shortened: as §1
# [24] = target: Gal(b1-3)[Fuc(a1-4)]GlcNAc(b1-2)Man
# Procedure, shortened: as §1
# [25] = target: Gal(b1-3)[Fuc(a1-4)]GlcNAc(b1-2)Man(a1-3)[Gal(b1-3)[Fuc(a1-4)]GlcNAc(b1-2)Man(a1-6)]Man(b1-4)GlcNAc(b1-4)[Fuc(a1-6)]GlcNAc
# Procedure, shortened: as §1
# [26] = target: Gal(b1-3)[Fuc(a1-4)]GlcNAc(b1-3)Gal(b1-3)[Fuc(a1-4)]GlcNAc
# Procedure, shortened: as §1
# [27] = target: Gal(b1-3)[Fuc(a1-4)]GlcNAc(b1-3)Gal(b1-4)[Fuc(a1-3)]GlcNAc
# Procedure, shortened: as §1
# [28] = target: Gal(b1-3)[Fuc(a1-4)]GlcNAc(b1-6)GalNAc
# Procedure, shortened: as §1
# [29] = target: Gal(b1-3)[GlcNAc(b1-6)]GalNAc
# Procedure, shortened: as §1
# [30] = target: Gal(b1-3)[Neu5Ac(a2-6)]GalNAc
# Procedure, shortened: as §1
# [31] = target: Gal(b1-3)[Neu5Ac(a2-6)]GlcNAc(b1-4)Gal(b1-4)Glc
# Procedure, shortened: as §1
# [32] = target: Gal(b1-3)[Neu5Ac(b2-6)]GalNAc
# Procedure, shortened: as §1
# Gal(b1-4)Gal = target: Gal(b1-4)Gal
# Procedure, shortened: as §1
# [33] = target: Gal(b1-4)GalNAc(a1-3)[Fuc(a1-2)]Gal(b1-4)GlcNAc
# Procedure, shortened: as §1
binder,measurement,setting,value
B1,glycan array binding signal (z-score),Gal(b1-3)GalNAc(b1-3)Gal,0.774
same,glycan array binding signal (z-score),[1],-0.678
same,glycan array binding signal (z-score),[2],0.953
same,glycan array binding signal (z-score),[3],-0.595
same,glycan array binding signal (z-score),Gal(b1-3)GlcNAc,-0.258
same,glycan array binding signal (z-score),[4],-0.484
same,glycan array binding signal (z-score),[5],-0.642
same,glycan array binding signal (z-score),Gal(b1-3)GlcNAc(b1-2)Man,0.051
same,glycan array binding signal (z-score),[6],0.301
same,glycan array binding signal (z-score),[7],0.132
same,glycan array binding signal (z-score),[8],0.058
same,glycan array binding signal (z-score),[9],0.213
same,glycan array binding signal (z-score),[10],-0.725
same,glycan array binding signal (z-score),[11],-0.698
same,glycan array binding signal (z-score),[12],-0.41
same,glycan array binding signal (z-score),[13],0.818
same,glycan array binding signal (z-score),[14],-0.055
same,glycan array binding signal (z-score),[15],-0.153
same,glycan array binding signal (z-score),[16],-0.533
same,glycan array binding signal (z-score),[17],-0.727
same,glycan array binding signal (z-score),[18],-0.636
same,glycan array binding signal (z-score),[19],-0.326
same,glycan array binding signal (z-score),[20],-0.521
same,glycan array binding signal (z-score),[21],-0.588
same,glycan array binding signal (z-score),[22],-0.057
same,glycan array binding signal (z-score),Gal(b1-3)GlcNAc6S,0.486
same,glycan array binding signal (z-score),[23],-0.091
same,glycan array binding signal (z-score),[24],0.927
same,glycan array binding signal (z-score),[25],3.71
same,glycan array binding signal (z-score),[26],-0.681
same,glycan array binding signal (z-score),[27],-0.729
same,glycan array binding signal (z-score),[28],-0.018
same,glycan array binding signal (z-score),[29],-0.137
same,glycan array binding signal (z-score),[30],0.27
same,glycan array binding signal (z-score),[31],1.27
same,glycan array binding signal (z-score),[32],-0.423
same,glycan array binding signal (z-score),Gal(b1-4)Gal,-0.359
same,glycan array binding signal (z-score),[33],0.605

# Reprinted at random: 2 entries already listed.
binder,measurement,setting,value
B1,glycan array binding signal (z-score),[2],0.953
same,glycan array binding signal (z-score),Gal(b1-3)GlcNAc(b1-2)Man,0.051
